Data source: PubChem BioAssay AID1259254 (NCATS, 2017)
Here is one part, drawn at random, of about 59,000 reagents. About 1,550 of them (2.6%) were called active. 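G2 share is only a proxy for re-replication; each gene was hit by three separate siRNAs, and active genes were retested.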 The raw values are shown without normalisation. The numbers tell different reagents against one gene apart. Not given: the amount of reagent.

Screen: 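Genome-wide screen for genes that prevent DNA re-replication in cancer cells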 (primary screen)
System: human HCT116 colorectal cancer cells
Knock-down reagent: single siRNA against human genes
Timing: 3 days
Measurement: 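Nuclei stained with Hoechst and imaged; cell-cycle phase assigned by DNA content; G2 share scaled per plate, non-targeting siRNA 0%, GMNN siRNA 100%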
Direction: G2 robust z-score and G2 cells, % of GMNN control: higher = more G2 cells, more excess DNA replication; raw share of cells in G2: higher = larger share of cells with G2 DNA content
Call rule: 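Active siRNAs have a G2 robust z of 5 or more median absolute deviations over the median, which in these data means about 38% or higher of GMNN control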

Target gene,reagent no.,G2 robust z-score,"G2 cells, % of GMNN control",raw share of cells in G2 (%),activity call
CNOT10 (CCR4-NOT transcription complex subunit 10),1,0.205,4.41,6.07,inactive
CNOT10 (CCR4-NOT transcription complex subunit 10),2,1.35,12.5,9.35,inactive
CNOT10 (CCR4-NOT transcription complex subunit 10),3,0.648,7.52,5.93,inactive
ANKRD9 (ankyrin repeat domain 9),1,1.21,11.5,8.7,inactive
ANKRD9 (ankyrin repeat domain 9),2,0.219,4.51,4.67,inactive
ANKRD9 (ankyrin repeat domain 9),3,-0.19,1.63,2.29,inactive
CNKSR1 (connector enhancer of kinase suppressor of Ras 1),1,1.45,13.1,9.68,inactive
CNKSR1 (connector enhancer of kinase suppressor of Ras 1),2,0.664,7.64,7.97,inactive
CNKSR1 (connector enhancer of kinase suppressor of Ras 1),3,-1.11,-4.82,2.14,inactive
IL18R1 (interleukin 18 receptor 1),1,0.639,7.46,7.38,inactive
IL18R1 (interleukin 18 receptor 1),2,2.18,18.3,11.7,inactive
IL18R1 (interleukin 18 receptor 1),3,0.823,8.76,8.52,inactive
LOC730961 (retired record),1,0.997,9.98,7.58,inactive
LOC730961 (retired record),2,-1.16,-5.19,1.36,inactive
LOC730961 (retired record),3,-0.932,-3.59,2.16,inactive
PDHA2 (pyruvate dehydrogenase E1 subunit alpha 2),1,0.859,9.01,7.72,inactive
PDHA2 (pyruvate dehydrogenase E1 subunit alpha 2),2,-0.521,-0.701,3.29,inactive
PDHA2 (pyruvate dehydrogenase E1 subunit alpha 2),3,-0.364,0.409,4.43,inactive
SMNDC1 (survival motor neuron domain containing 1),1,0.549,6.83,8.66,inactive
SMNDC1 (survival motor neuron domain containing 1),2,1.07,10.5,7.23,inactive
SMNDC1 (survival motor neuron domain containing 1),3,-0.317,0.739,6.77,inactive
COL6A3 (collagen type VI alpha 3 chain),1,0.263,4.82,5.37,inactive
COL6A3 (collagen type VI alpha 3 chain),2,1.71,15,11.9,inactive
COL6A3 (collagen type VI alpha 3 chain),3,-1.22,-5.58,1.08,inactive
MAN2C1 (mannosidase alpha class 2C member 1),1,-0.198,1.58,5.97,inactive
MAN2C1 (mannosidase alpha class 2C member 1),2,0.186,4.27,4.61,inactive
MAN2C1 (mannosidase alpha class 2C member 1),3,0.891,9.24,9.13,inactive

Individual results from the entries so far.
For “raw share of cells in G2 (%)”, PDHA2 (pyruvate dehydrogenase E1 subunit alpha 2) #1 is entered as 7.72
For “G2 cells, % of GMNN control”, MAN2C1 (mannosidase alpha class 2C member 1) #1 reads 1.58
Under “activity call”, LOC730961 (retired record) #3 has inactive
Entry of CNKSR1 (connector enhancer of kinase suppressor of Ras 1) #2 in “G2 robust z-score”: 0.664

Further results follow.
Target gene,reagent no.,G2 robust z-score,"G2 cells, % of GMNN control",raw share of cells in G2 (%),activity call
OR5AR1 (olfactory receptor family 5 subfamily AR member 1),1,-0.522,-0.706,3.32,inactive
OR5AR1 (olfactory receptor family 5 subfamily AR member 1),2,-0.333,0.625,3.34,inactive
OR5AR1 (olfactory receptor family 5 subfamily AR member 1),3,0.779,8.45,5.89,inactive
ZBTB26 (zinc finger and BTB domain containing 26),1,-0.72,-2.1,2.05,inactive
ZBTB26 (zinc finger and BTB domain containing 26),2,0.498,6.47,8.83,inactive
ZBTB26 (zinc finger and BTB domain containing 26),3,-0.552,-0.918,3.34,inactive
CMKLR2 (chemerin chemokine-like receptor 2),1,2.68,21.8,13.6,inactive
CMKLR2 (chemerin chemokine-like receptor 2),2,4.69,36,17.1,inactive
CMKLR2 (chemerin chemokine-like receptor 2),3,1.06,10.4,6.46,inactive
JAGN1 (jagunal vesicle mediated transporter 1),1,1.57,14,8.77,inactive
JAGN1 (jagunal vesicle mediated transporter 1),2,-0.167,1.79,3.99,inactive
JAGN1 (jagunal vesicle mediated transporter 1),3,-0.663,-1.7,1.89,inactive
RNASEH1 (ribonuclease H1),1,0.312,5.16,8.42,inactive
RNASEH1 (ribonuclease H1),2,-0.712,-2.04,3.95,inactive
RNASEH1 (ribonuclease H1),3,4.26,32.9,18.5,inactive
LOC729316 (POM121 membrane glycoprotein pseudogene),1,0.388,5.7,6.11,inactive
LOC729316 (POM121 membrane glycoprotein pseudogene),2,1.72,15.1,8.19,inactive
LOC729316 (POM121 membrane glycoprotein pseudogene),3,0.706,7.93,6.2,inactive
TM9SF3 (transmembrane 9 superfamily member 3),1,0.313,5.17,8.7,inactive
TM9SF3 (transmembrane 9 superfamily member 3),2,-0.791,-2.6,3.25,inactive
TM9SF3 (transmembrane 9 superfamily member 3),3,-0.975,-3.89,3.04,inactive
